PubChem BioAssay AID504774, Drosophila RNAi Screening Center – 2011

- Test: 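Knock-downs that shift viability of MMS-exposed cells relative to untreated ones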 (primary screen)
- System: Drosophila Kc167 cells
- Knock-down reagent: long dsRNA against Drosophila genes, about 0.25 µg dsRNA per well
- Time to read-out: about 6 days: 3 days knock-down, then 3 days with or without MMS
- Treatment: methyl methanesulphonate 0.004% (w/v) for 3 days after knock-down
- Detection: 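Viability in wells given MMS, read as ATP luminescence, normalised by quantiles plate by plate and averaged across replicates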
- Scale: mean viability with MMS: higher = more surviving cells after MMS
The screen tested about 23,000 reagents; shown is an unselected part of those with a known target gene and a result. 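Values are quantile-normalised luminescence on an arbitrary scale; higher means more cells surviving MMS.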 Names joined by + are all predicted targets of the reagent. Further read-outs or replicates are left out here.

CG31869 [DRSC02582]: mean viability with MMS = 3.48e6
CG31869 [DRSC02674]: mean viability with MMS = 3.63e6
Rpn13R [DRSC18404]: mean viability with MMS = 3.44e6
CG15263 [DRSC01974]: mean viability with MMS = 3.57e6
Smu1 [DRSC15803]: mean viability with MMS = 3.40e6
Lip3 [DRSC16727]: mean viability with MMS = 3.77e6
Mst57Dc [DRSC16745]: mean viability with MMS = 3.44e6
CG34210 [DRSC04579]: mean viability with MMS = 3.66e6
PAPLA1 [DRSC03095]: mean viability with MMS = 3.67e6
PAPLA1 [DRSC03096]: mean viability with MMS = 3.64e6
CG7208 [DRSC16212]: mean viability with MMS = 3.63e6
CG16974 [DRSC02551]: mean viability with MMS = 3.80e6
CG31817 [DRSC01537]: mean viability with MMS = 3.51e6
CG31817 [DRSC01538]: mean viability with MMS = 3.57e6
CG31817 [DRSC22476]: mean viability with MMS = 3.57e6
CG18628 [DRSC10328]: mean viability with MMS = 3.69e6
CG17107 [DRSC02575]: mean viability with MMS = 3.25e6
CG17107 [DRSC22627]: mean viability with MMS = 3.53e6
CG9522 [DRSC20197]: mean viability with MMS = 3.52e6
Sur [DRSC03447]: mean viability with MMS = 3.56e6
Prosbeta4R2 [DRSC00503]: mean viability with MMS = 3.63e6
Gyg [DRSC03850]: mean viability with MMS = 3.21e6
Gyg [DRSC04556]: mean viability with MMS = 3.53e6
Nepl9 [DRSC02255]: mean viability with MMS = 3.51e6
dy [DRSC20325]: mean viability with MMS = 3.85e6
CG9628 [DRSC11082]: mean viability with MMS = 3.53e6
sloth2 + sloth1 [DRSC17922]: mean viability with MMS = 3.49e6
sloth2 + sloth1 [DRSC17923]: mean viability with MMS = 3.50e6
CG14752 [DRSC06488]: mean viability with MMS = 3.58e6
CG1113 [DRSC12163]: mean viability with MMS = 3.38e6
Gli [DRSC03332]: mean viability with MMS = 3.63e6
RNaseZ [DRSC06845]: mean viability with MMS = 3.51e6
Uch-L5R [DRSC19825]: mean viability with MMS = 3.41e6
CG4882 [DRSC04495]: mean viability with MMS = 3.49e6
KdelR [DRSC03353]: mean viability with MMS = 3.32e6

Targets listed so far whose gene name begins with G or g:
Gyg [DRSC03850]: mean viability with MMS = 3.21e6
Gyg [DRSC04556]: mean viability with MMS = 3.53e6
Gli [DRSC03332]: mean viability with MMS = 3.63e6
